Data on 38 targets can be found in the supplement of paper PMC12819154, “High-throughput peptide-centric local stability assay extends protein–ligand identification to membrane proteins, tissues and bacteria” (Nature Structural & Molecular Biology, 2025).

The chains behind the UniProt entries cited, without tags or fusion partners. Where a name states a change or a piece, a line headed by the entry shows the natural chain unless it says otherwise.
UniProt O43818: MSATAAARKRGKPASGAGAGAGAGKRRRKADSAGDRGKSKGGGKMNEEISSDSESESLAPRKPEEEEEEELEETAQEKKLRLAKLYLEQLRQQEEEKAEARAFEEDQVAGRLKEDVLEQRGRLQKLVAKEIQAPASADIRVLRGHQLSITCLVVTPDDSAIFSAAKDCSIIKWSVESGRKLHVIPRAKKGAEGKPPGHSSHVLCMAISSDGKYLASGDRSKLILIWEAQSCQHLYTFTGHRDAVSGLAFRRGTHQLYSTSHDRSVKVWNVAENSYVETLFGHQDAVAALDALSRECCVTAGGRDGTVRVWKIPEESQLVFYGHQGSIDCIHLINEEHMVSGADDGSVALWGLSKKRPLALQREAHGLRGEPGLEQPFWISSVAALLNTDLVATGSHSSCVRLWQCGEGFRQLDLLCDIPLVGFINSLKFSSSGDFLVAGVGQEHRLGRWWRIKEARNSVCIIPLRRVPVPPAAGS
UniProt O43678, whole entry: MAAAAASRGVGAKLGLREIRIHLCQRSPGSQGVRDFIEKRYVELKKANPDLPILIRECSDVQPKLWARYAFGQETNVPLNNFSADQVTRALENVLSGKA
UniProt O75170: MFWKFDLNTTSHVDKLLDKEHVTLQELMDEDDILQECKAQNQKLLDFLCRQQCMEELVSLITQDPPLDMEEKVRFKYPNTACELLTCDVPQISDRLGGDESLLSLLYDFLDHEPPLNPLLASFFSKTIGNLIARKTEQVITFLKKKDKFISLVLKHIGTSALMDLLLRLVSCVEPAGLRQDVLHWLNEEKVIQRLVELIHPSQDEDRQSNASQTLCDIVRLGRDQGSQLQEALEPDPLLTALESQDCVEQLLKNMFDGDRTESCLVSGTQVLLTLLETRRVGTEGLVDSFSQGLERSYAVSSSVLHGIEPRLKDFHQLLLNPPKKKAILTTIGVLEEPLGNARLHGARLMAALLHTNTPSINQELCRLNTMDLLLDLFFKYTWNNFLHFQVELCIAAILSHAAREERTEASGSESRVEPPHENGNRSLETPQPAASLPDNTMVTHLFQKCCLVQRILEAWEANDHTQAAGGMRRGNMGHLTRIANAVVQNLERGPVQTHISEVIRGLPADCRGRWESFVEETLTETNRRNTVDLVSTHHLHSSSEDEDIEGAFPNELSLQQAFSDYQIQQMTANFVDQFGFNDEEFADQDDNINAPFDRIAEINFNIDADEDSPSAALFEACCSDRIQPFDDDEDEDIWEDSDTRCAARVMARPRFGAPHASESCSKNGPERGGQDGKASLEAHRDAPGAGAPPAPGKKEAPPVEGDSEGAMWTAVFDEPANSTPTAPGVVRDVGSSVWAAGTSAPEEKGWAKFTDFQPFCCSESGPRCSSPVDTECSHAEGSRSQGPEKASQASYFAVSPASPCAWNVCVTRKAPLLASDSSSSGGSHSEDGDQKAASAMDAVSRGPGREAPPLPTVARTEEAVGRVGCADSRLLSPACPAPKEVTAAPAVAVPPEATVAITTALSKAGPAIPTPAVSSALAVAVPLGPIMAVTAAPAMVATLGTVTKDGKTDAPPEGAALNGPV
UniProt O60583: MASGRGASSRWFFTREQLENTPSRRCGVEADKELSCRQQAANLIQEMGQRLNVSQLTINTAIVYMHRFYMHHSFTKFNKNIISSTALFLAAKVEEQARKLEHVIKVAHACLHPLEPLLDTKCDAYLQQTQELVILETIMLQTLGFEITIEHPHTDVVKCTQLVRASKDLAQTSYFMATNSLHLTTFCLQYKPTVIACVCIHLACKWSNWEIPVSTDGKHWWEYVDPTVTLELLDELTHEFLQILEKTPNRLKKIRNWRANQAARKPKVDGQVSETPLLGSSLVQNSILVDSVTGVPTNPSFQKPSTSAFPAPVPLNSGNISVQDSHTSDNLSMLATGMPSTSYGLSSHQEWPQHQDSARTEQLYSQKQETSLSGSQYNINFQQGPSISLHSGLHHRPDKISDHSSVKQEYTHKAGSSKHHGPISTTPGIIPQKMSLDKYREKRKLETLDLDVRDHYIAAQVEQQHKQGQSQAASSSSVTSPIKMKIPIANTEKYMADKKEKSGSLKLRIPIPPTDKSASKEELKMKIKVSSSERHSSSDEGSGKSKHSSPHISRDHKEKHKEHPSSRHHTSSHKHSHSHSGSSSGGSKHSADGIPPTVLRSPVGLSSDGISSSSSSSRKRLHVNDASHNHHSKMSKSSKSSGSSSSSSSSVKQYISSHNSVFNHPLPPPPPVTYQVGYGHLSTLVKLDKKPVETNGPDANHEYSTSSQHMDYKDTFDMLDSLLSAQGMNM
UniProt O43255: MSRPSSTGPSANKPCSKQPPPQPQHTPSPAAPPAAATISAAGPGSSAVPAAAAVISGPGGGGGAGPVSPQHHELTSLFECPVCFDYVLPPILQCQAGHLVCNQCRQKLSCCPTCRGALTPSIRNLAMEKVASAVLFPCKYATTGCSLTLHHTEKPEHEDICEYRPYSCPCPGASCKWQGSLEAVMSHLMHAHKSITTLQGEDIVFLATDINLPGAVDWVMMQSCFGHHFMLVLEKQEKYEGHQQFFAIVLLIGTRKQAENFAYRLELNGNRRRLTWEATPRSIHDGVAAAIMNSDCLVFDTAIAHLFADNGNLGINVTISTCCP
UniProt O43396: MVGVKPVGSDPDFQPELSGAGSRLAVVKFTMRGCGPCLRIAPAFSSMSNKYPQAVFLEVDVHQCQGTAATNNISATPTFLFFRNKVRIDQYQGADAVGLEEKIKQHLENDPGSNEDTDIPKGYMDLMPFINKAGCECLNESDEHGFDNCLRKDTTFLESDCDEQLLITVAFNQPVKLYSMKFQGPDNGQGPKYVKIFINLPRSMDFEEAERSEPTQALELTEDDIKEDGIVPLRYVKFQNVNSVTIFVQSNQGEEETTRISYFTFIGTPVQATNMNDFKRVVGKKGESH
UniProt O60930: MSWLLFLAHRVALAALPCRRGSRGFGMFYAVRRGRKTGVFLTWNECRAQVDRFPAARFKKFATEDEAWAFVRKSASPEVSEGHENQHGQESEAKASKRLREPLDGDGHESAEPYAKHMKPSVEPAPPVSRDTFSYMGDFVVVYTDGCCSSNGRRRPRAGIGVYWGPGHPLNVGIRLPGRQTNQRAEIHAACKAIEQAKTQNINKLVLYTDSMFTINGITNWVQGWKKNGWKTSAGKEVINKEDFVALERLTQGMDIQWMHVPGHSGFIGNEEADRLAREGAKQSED
UniProt O60701: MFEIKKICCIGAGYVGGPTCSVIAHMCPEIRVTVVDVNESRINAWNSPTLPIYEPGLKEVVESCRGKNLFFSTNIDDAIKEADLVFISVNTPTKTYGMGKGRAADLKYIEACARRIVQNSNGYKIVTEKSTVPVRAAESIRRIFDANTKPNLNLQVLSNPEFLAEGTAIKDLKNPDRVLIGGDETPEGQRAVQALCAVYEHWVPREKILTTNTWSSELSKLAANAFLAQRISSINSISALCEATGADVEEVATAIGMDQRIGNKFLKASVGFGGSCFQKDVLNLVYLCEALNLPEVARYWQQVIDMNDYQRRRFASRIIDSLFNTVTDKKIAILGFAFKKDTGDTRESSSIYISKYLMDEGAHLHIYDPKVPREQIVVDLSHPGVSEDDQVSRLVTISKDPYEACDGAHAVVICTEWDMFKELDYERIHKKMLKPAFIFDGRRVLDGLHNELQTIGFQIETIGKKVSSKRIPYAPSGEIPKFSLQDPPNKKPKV
UniProt O43583: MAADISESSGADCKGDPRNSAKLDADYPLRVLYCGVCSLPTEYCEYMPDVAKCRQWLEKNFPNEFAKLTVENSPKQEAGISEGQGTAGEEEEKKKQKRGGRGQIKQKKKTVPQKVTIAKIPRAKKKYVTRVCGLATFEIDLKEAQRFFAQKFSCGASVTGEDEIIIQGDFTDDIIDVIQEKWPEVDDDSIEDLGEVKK
UniProt O43379: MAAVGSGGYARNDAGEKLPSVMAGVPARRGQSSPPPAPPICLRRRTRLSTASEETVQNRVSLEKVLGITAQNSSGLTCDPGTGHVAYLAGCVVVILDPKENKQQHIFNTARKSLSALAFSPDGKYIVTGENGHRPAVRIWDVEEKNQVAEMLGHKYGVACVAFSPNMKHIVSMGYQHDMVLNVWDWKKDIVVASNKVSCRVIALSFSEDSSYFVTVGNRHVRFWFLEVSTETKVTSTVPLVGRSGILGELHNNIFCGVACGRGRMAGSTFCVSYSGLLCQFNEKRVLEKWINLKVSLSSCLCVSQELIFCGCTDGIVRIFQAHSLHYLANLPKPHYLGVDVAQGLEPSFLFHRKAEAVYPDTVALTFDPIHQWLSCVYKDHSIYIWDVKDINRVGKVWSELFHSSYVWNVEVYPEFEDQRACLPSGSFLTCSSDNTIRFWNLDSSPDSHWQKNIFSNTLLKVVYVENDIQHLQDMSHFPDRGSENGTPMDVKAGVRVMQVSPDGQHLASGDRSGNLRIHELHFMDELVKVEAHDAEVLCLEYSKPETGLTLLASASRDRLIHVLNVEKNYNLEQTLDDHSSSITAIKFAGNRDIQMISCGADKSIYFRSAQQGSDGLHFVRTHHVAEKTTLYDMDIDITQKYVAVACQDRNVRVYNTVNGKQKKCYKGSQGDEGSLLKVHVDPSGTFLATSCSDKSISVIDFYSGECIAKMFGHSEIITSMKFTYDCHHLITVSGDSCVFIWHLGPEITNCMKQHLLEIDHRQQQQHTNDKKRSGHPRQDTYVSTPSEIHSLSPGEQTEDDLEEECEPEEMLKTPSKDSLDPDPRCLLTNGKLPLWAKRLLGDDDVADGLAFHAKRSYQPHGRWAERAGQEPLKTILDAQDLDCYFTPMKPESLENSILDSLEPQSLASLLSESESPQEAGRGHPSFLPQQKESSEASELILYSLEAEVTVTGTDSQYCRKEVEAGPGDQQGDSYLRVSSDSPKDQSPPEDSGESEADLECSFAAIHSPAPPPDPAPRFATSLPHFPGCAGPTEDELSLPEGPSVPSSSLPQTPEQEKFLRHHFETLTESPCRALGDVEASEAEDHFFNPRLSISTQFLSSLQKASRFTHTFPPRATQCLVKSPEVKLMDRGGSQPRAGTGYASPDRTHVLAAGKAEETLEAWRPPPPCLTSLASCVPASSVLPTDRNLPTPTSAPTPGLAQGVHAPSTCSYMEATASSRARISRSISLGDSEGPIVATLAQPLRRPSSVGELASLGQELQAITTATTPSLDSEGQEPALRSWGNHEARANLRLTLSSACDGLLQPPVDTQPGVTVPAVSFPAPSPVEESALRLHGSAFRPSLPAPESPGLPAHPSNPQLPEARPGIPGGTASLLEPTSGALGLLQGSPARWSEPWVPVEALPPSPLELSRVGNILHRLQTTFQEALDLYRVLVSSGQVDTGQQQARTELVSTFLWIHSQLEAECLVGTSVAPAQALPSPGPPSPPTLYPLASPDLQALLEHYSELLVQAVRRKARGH
UniProt O43809, whole entry: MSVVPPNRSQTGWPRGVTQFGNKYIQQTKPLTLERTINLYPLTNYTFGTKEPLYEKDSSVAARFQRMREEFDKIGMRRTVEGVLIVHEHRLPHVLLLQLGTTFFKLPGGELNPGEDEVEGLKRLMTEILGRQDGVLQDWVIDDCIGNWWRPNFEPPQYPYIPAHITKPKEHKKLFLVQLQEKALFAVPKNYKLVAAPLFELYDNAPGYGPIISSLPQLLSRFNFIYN
UniProt O75152: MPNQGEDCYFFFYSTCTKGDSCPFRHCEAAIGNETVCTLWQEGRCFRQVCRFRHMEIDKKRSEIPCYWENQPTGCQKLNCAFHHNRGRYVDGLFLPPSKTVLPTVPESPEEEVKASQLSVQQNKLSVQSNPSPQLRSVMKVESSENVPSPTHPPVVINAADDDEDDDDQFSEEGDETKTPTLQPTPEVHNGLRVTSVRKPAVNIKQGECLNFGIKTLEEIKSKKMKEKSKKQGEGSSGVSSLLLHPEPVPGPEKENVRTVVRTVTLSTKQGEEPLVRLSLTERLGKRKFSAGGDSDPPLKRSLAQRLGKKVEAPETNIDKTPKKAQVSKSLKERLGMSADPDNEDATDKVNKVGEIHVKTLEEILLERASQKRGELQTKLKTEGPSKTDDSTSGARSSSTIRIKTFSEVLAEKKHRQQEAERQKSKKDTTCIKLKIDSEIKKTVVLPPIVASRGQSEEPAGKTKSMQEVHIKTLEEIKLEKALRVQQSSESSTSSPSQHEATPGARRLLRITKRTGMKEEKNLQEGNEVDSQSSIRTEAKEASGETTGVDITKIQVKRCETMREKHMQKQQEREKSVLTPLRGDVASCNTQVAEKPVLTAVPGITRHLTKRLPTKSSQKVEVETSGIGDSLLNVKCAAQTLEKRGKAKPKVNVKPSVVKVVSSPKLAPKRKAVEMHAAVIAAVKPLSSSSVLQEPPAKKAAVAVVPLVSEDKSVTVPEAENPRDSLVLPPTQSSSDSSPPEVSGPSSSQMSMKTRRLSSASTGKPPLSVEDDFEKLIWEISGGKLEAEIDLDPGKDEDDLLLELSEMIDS
UniProt O60220: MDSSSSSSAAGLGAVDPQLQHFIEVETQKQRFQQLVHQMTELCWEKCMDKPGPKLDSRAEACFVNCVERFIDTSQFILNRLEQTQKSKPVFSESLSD

The other results are listed elsewhere or left out. Most entries show no effect beyond the scatter of the controls.

Compound in the test: Cc1nc(Nc2ncc(C(=O)Nc3c(C)cccc3Cl)s2)cc(N2CCN(CCO)CC2)n1 [dasatinib]
Briefly: log2 fold change of tryptic peptide abundance, ligand vs vehicle (limited proteolysis) (log2 ratio); higher = more trypsin-susceptible (destabilized). To be noted: ligand concentration: 5 uM; sample: K562 cleared lysate.
For the target “PPP1R12B (peptide sequence: FSSGLFNKPEEPKDESPSSWR, peptide start residue: 419) (UniProt O60237)”, the log2 fold change was -0.608.
Then “EIF5B (peptide sequence: KNTKDEFEER, peptide start residue: 781) (UniProt O60841)”, with 0.107; and “PRPSAP2 (peptide sequence: LLASMMCK, peptide start residue: 129) (UniProt O60256)”, with 0.451.
The value for “RRP9 (peptide sequence: LKEDVLEQR, peptide start residue: 112) (UniProt O43818)” was 0.18; that for “PPIH (peptide sequence: GPFADENFK, peptide start residue: 93) (UniProt O43447)” was 0.564.
Then “NDUFA2 (peptide sequence: ANPDLPILIR, peptide start residue: 47) (UniProt O43678)”, with 0.0637; and “UniProt O75396 (peptide sequence: ANNLSSLSKK, peptide start residue: 170)”, with 0.174; and “CYTH3 (peptide sequence: ELIDDIER, peptide start residue: 33) (UniProt O43739)”, with -0.0899.
Regarding “UniProt O75170 (peptide sequence: SYAVSSSVLHGIEPR, peptide start residue: 297)”, the log2 fold change is -0.227.
The value for “TOM1 (peptide sequence: NNPPTIVHDK, peptide start residue: 107) (UniProt O60784)” was 0.746.
Then “SYNCRIP (peptide sequence: DYAFIHFDER, peptide start residue: 372) (UniProt O60506)”, with 0.144; and “UniProt O75072 (peptide sequence: NGAGLSK, peptide start residue: 36)”, with 0.0272; and “CCNT2 (peptide sequence: LHVNDASHNHHSK, peptide start residue: 621) (UniProt O60583)”, with -0.126.
The value for “SIAH2 (peptide sequence: LSCCPTCR, peptide start residue: 108) (UniProt O43255)” was -0.449; that for “NDUFS5 (peptide sequence: YTPPPHHIGK, peptide start residue: 92) (UniProt O43920)” was -0.102.
As to “UniProt O75161 (peptide sequence: KPPTSPSSPPAPVPR, peptide start residue: 474)”, the log2 fold change was 0.585.
Then “DHX16 (peptide sequence: LRDTDTLDLSGPARDFALR, peptide start residue: 47) (UniProt O60231)”, with 0.514.
The value for “TXNL1 (peptide sequence: IFINLPR, peptide start residue: 196) (UniProt O43396)” was -0.0872; that for “HTRA2 (peptide sequence: VTAGISFAIPSDR, peptide start residue: 325) (UniProt O43464)” was 0.179.
The value for “RNASEH1 (peptide sequence: LREPLDGDGHESAEPYAK, peptide start residue: 99) (UniProt O60930)” was 0.277; that for “PAPSS1 (peptide sequence: TDAETLPALK, peptide start residue: 249) (UniProt O43252)” was -0.335; that for “KIF21B (peptide sequence: KVVHVPYRDSK, peptide start residue: 316) (UniProt O75037)” was 0.741.
As for “UGDH (peptide sequence: YIEACAR, peptide start residue: 108) (UniProt O60701)”, the log2 fold change is 0.198.
Then “ZBTB24 (peptide sequence: KVNTLQEEK, peptide start residue: 167) (UniProt O43167)”, with 0.318.
The value for “DNAJC13 (peptide sequence: DMFEKVNK, peptide start residue: 1341) (UniProt O75165)” was -0.597; that for “UniProt O60524 (peptide sequence: LASKEESSNSSDSK, peptide start residue: 796)” was 0.231; that for “DENR (peptide sequence: LDADYPLR, peptide start residue: 23) (UniProt O43583)” was 0.192.
The value for “UniProt O60336 (peptide sequence: WACLGEGTTPKPR, peptide start residue: 1344)” was -0.317; that for “NME6 (peptide sequence: HVAPDSIR, peptide start residue: 109) (UniProt O75414)” was -0.0302; that for “WDR62 (peptide sequence: LIHVLNVEK, peptide start residue: 560) (UniProt O43379)” was -0.896.
For the target “NUDT21 (peptide sequence: YIQQTKPLTLER, peptide start residue: 24) (UniProt O43809)”, the log2 fold change is -0.153.
The value for “HMMR (peptide sequence: ENTTAELTEEINKWR, peptide start residue: 566) (UniProt O75330)” was -0.262; that for “ZNF292 (peptide sequence: KNNLENKNAK, peptide start residue: 2338) (UniProt O60281)” was 0.159; that for “NDUFS2 (peptide sequence: IIAQCLNK, peptide start residue: 343) (UniProt O75306)” was -0.299.
The value for “ULK1 (peptide sequence: LHSAPNLSDLHVVRPK, peptide start residue: 554) (UniProt O75385)” was -0.462; that for “ZC3H11A (peptide sequence: TEGPSKTDDSTSGAR, peptide start residue: 382) (UniProt O75152)” was -0.72; that for “SMARCA5 (peptide sequence: FEDSPSYVKWGK, peptide start residue: 168) (UniProt O60264)” was -0.38.
The value for “TIMM8A (peptide sequence: SKPVFSESLSD, peptide start residue: 87) (UniProt O60220)” was 0.0192.
